Measurements: PMC5853894
Results are given in words; binding and its absence hold for the method and conditions named. In cells and extracts the contact can be indirect. Some entries that bind do so weakly or less than the wild type. Tags and fused reporters may be left off the sequences shown.

T1: small rubber particle protein (SRPP) fused to GFP (Hevea brasiliensis) (UniProt O82803)
T1 sequence: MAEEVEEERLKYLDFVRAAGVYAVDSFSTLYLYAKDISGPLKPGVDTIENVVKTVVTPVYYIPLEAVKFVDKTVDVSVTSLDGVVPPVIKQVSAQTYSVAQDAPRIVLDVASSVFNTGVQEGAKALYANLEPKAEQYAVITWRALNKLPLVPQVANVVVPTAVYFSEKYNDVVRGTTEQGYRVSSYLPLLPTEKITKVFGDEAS

T2: rubber elongation factor (REF) fused to mCherry (Hevea brasiliensis) (UniProt P15252)
T2 sequence: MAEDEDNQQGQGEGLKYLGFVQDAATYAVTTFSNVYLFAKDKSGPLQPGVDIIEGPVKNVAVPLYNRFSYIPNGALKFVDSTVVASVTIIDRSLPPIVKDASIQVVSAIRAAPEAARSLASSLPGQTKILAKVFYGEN

B1: rubber elongation factor (REF) fused to mCherry (protein, UniProt P15252 1-138)
chain: T2 sequence
B2: cis-prenyltransferase CPT6 fused to mCherry (enzyme, UniProt Q8W3U4 1-284)
chain: MELYNGERPSVFRLLGKYMRKGLYSILTQGPIPTHIAFILDGNGRFAKKHKLPEGGGHKAGFLALLNVLTYCYELGVKYATIYAFSIDNFRRKPHEVQYVMNLMLEKIEGMIMEESIINAYDICVRFVGNLKLLDEPLKTAADKIMRATAKNSKFVLLLAVCYTSTDEIVHAVEESSKDKLKSDEICNDGNGDCVIKIEEMEPYSEIKLVELERNTYINPYPDVLIRTSGETRLSNYLLWQTTNCILYSPHALWPEIGLRHVVWAVINCQRHYSYLEKHKEYLK
B3: cis-prenyltransferase CPT6, fluorescent protein fusion tested against REF (enzyme, UniProt Q8W3U4 1-284)
chain: B2 chain

How the values were obtained:
[1] = target: T1, small rubber particle protein (SRPP) fused to GFP (Hevea brasiliensis); experiment: co-IP; N. benthamiana leaves co-infiltrated with pairs of constructs, homogenised after 3 d in 150 mM Tris-HCl pH 7.5, 150 mM NaCl, 1.5% Triton X-100; GFPTrap or RFPTrap beads, 2 h at 4 °C; immunoblot with anti-GFP or anti-RFP; done in both directions
[2] = target: T2, rubber elongation factor (REF) fused to mCherry (Hevea brasiliensis); experiment: as above

Binder	binding [1]	binding [2]
B1	binds	
B2	no binding	
B3		no binding
